The whole screen tested about 1,200 compounds, of which about 15 (1%) were called active. Another 7% or so got no clear call; they are omitted. Calls follow the shape of the dose curve; as a rule, active = well fitted activation curve with a large enough effect; inconclusive = small, poorly fitted or top-dose-only effect; inactive = flat fitted curve, though single readings scatter. This is one part of the list.
target: Beta-2 adrenergic receptor (Homo sapiens) (UniProt P07550); test: qHTS assay of beta-arrestin-biased ligands of beta2-adrenergic receptor: Hit Validation; details: cell-based beta-arrestin recruitment to beta2AR; Potency: activation; series mostly up to 46.1 µM; activation: at the top concentration;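 also: plate controls were DMSO for no effect and maximal isoproterenol or metaproterenol response for full effect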
How it was run: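 Luminescent tTA-driven luciferase reporter in Tango cells, read after 18 h at 37 °C with compound and 15 min with substrate mix (0.15 mM ATP, 0.44 mM D-luciferin, final). Concentration-response fits categorized by curve class.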

activation, inactive:
C/C(=N\NC(=S)NC(C)C)c1ccco1 0.73%
NC(=O)c1sc2nc(-c3ccco3)ccc2c1N -0.0167%
COc1cc(/C=C2\CC(C(C)(C)C)C/C(=C\c3cc(OC)c(OC)c(OC)c3)C2=O)cc(OC)c1OC (configuration not stated) -2.89%
COc1cccc(NC(=S)NN=C2CCCCCC2)c1 -0.788%
C=C(C)c1cccc(C(C)(C)NC(=O)NC(c2ccccc2)c2ccc(OC)cc2)c1 (configuration not stated) 8.73%
COC(CN(C(=O)CCl)C(C(=O)NC1CCCC(C)C1C)c1ccc(C)cc1)OC (configuration not stated) -4.4%
CC(C)CNC(=O)CN(C)S(=O)(=O)c1ccc(F)cc1 -3.8%
Cc1nc(NC(=S)Nc2ccccc2)sc1C -1.95%
COc1cc(C(c2nnnn2C(C)(C)C)N2CCN(C)CC2)cc(OC)c1OC (configuration not stated) -0.645%
Clc1ccc(OCc2nc(-c3ccccn3)n[nH]2)cc1 -1.51%
C=C(C)Cn1c(SCC(=O)N/N=C/c2cccc(O)c2)nc2ccccc2c1=O -1.27%
O=c1c(C(c2ccccc2)c2c(O)nc3n(c2=O)CCS3)c(O)nc2n1CCS2 -2.35%
CCCCCOc1ccc(NC(=O)CSc2cccc3cccnc23)cc1 0.173%
Oc1ccc2c(ccc3[nH]cnc32)c1 -2.43%
O=[N+]([O-])c1ccc(Cl)c(C2Nc3cccc4cccc(c34)N2)c1 -2.34%
CCc1nnc(NC(=S)Nc2ccccc2)s1 -2.15%
COc1cc(/C=N/NC(=S)NC2CC3C=CC2C3)cc(OC)c1OC (configuration not stated) -3.31%
S=C(Nc1ccccc1Cl)N(Cc1ccccc1)Cc1ccccn1 -11%
Oc1c(CN2CCN(c3ccccc3)CC2)cc(Br)c2cccnc12 -0.0884%
CCN(CC)c1cc(C(F)(F)F)nc(-c2ccccn2)n1 -3.79%
CCOC(=O)N1CCN(Cc2c(F)cccc2F)CC1 -2.4%
CCOC(=O)n1c(=O)oc2cc(S(=O)(=O)N3CCCCC3)ccc21 -4.09%
Cn1c(=S)c2[nH]c(SCCN3CCCC3)nc2n(C)c1=O -2.7%
O=C(Nc1ccc(Cl)cc1)/C(=C/c1cccc(O)c1)c1nc2ccccc2s1 -4.71%
CC1(C)Cc2c(sc3[nH]c(=S)n(Cc4ccccc4)c(=O)c23)CO1 -4.31%
O=c1[nH]c(CSc2ccccn2)nc2c1cnn2-c1ccccc1 -0.631%
CC1=NN(c2ccccc2)C(=O)/C1=C/C=C/c1ccccc1 -3.2%
CCN(CC)S(=O)(=O)c1ccc(C)c(NC(=S)Nc2cccc(S(=O)(=O)N3CCCCCC3)c2)c1 0.658%
COc1ccc(CN=C2NN=C(c3ccccc3)CS2)cc1 -5.3%
O=C(/C=C/c1ccc(N2CCCCC2)c([N+](=O)[O-])c1)c1ccc(S(=O)(=O)N2CCCC2)cc1 -3.08%
CN(Cc1ccccc1)CC(O)COc1ccc(CNCCCOc2cccnc2)cc1 (configuration not stated) -2.7%
COc1ccc(O)c(/C=N/Nc2nc(Nc3ccccc3)nc(-n3nc(C)cc3C)n2)c1 -2.97%
Cc1cc(C(=O)COC(=O)Cc2n[nH]c(=O)c3ccccc23)c(C)n1-c1ccc2c(c1)OCCO2 3.48%
CCCN(CC(=O)Nc1ccc(Cl)cc1Cl)C(=O)/C=C/c1ccco1 -2.23%
Cc1cccnc1NC(=S)Nc1ccc(Br)cc1Cl -1.9%
COc1ccc(N2COC3c4cccc5cccc(c45)C32)cc1 (configuration not stated) -1.17%
O=C1c2ccccc2-c2onc3ccc(Oc4ccccc4)c1c23 -3.37%
CC(=O)c1sc(Nc2nc3ccc(F)cc3s2)nc1C -2.59%
CSc1cccc(CN2CCC(Oc3cccc(C(=O)N4CCCC4)c3)CC2)c1 -2.33%
CN(C)NC(=S)NC(=O)C12CC3CC(CC(C3)C1)C2 -2%
CCCC(=O)NC(c1ccccc1OC)c1ccc2cccnc2c1O (configuration not stated) -3.63%
COC(=O)N1C(=O)[C@@](c2ccc(OC)cc2)(C(C)C)N1C(=O)OC -0.416%
CCCC1CCC(=NNC(=S)NCCc2ccccc2)CC1 (configuration not stated) -2.41%
COc1ccc(/C=N/NC(=S)Nc2ccccc2)cc1 -1.6%
C/C(CCc1ccccc1)=N\NC(=S)NCCc1ccccc1 -4.15%
CCNc1nc(-c2cc3ccccc3o2)cs1 -3.12%
NS(=O)(=O)c1ccc(N2CCOCC2)c(C(=O)NCc2cccs2)c1 -0.191%
O=C(Cn1c(=O)c2sccc2n(Cc2cccc([N+](=O)[O-])c2)c1=O)NCCc1ccccc1 -1.94%
CO/C=C\C=C/c1nnn(-c2ccc(Cl)cc2)n1 -0.995%
O=C(Nc1cccc2ccccc12)N1N=CCC1c1ccccc1 (configuration not stated) -2.81%
Cc1cccc(C)c1-n1c(C)cc(/C=N/NC(N)=S)c1C -4.05%
Cc1cc(C)cc(OCCn2nnc3ccccc32)c1 -0.728%
O=C(/C=C\c1ccco1)Oc1cccc2cccnc12 -1.94%
CCCc1cc(=O)n2[nH]c(-c3ccc(Cl)cc3)cc2n1 -1.03%
C=C(C)C(=O)OC1(C(F)(F)F)Oc2cc(C)ccc2NC1=O (configuration not stated) 0.118%
O=C(O)c1cn(Cc2ccccc2)c2ccccc2c1=O -4.98%
O=[N+]([O-])c1cc([N+](=O)[O-])c2cc3ccccc3nc2c1 -2.08%
C/C(Cl)=C\Cn1c(O)c(N=NC(N)=S)c2ccccc21 -3.24%
C(=N\NC1=Nc2cccc3cccc1c23)/c1ccccn1 -0.451%
CC(=O)OC[C@H]1O[C@@H](Sc2cccc3cccnc23)[C@H](OC(C)=O)[C@@H](OC(C)=O)[C@H]1OC(C)=O -2.15%
CCC(=O)Nc1ccc2c(c1)C(=O)c1ccccc1C2=O -1.51%
COc1cccc(OCC(=O)Nc2c3c(nn2-c2ccc(F)cc2)CS(=O)(=O)C3)c1 -3.13%
C[C@H](C(=O)CC(=O)OC(C)(C)C)[C@H](O)c1ccccc1 -4.43%
Cc1cccc(NC(=S)NCc2ccco2)n1 -1.1%
CNC(=S)N/N=C(\C)c1cccc(C(F)(F)F)c1 -2.59%
C=CCn1c(CCn2c3ccccc3c3ccccc32)n[nH]c1=S -1.05%
N/C(=C\C(=O)c1cc(Cl)ccc1O)C(Cl)(Cl)Cl -2.69%
COc1ccc2c(c1)c1ncn(CCN3CCCCC3)c(=O)c1n2C -0.19%
Cc1cc(C)n(-c2nc(NCC3CCCO3)c3c4c(sc3n2)COC(C)(C)C4)n1 (configuration not stated) -2.68%
NC(=S)N/N=C/c1ccc(-c2ccc(SC(F)F)cc2)o1 -4.96%
COC(=O)C1=C(C)NC(=S)NC1c1ccc(-c2cc(Cl)ccc2Cl)o1 (configuration not stated) -1.05%
O=C(Oc1c(Cl)cc(Cl)c2cccnc12)c1cccs1 -2.15%
CCCCC(=O)NC(=S)Nc1nnn(CCC)n1 -5.04%
O=C(COc1ccc2ccccc2c1)Nc1ccc(Br)cc1C(=O)O -2.26%
COc1ccc(NC(=S)N/N=C/c2ccc(F)c(F)c2)cc1 -3.06%
O=C(CSc1cccc[n+]1[O-])c1ccc(Cl)s1 -3.9%
O=C(N/N=C/C(Br)=C/c1ccccc1)c1cnccn1 3.91%
CCOCCc1c(O)nc(SC)[nH]c1=O -3.04%
Clc1cccc(Cl)c1C1Nc2cccc3cccc(c23)N1 -3.31%
CCC(NC(=O)NNC(N)=S)(C(F)(F)F)C(F)(F)F -2.95%
CCn1ncc(Cl)c1C(=O)NC(=S)Nc1ccccc1Br -2.87%
CCCCNC(=S)NNC(=O)CCn1nc(C)c(Br)c1C -2.27%
Cc1nc2ccccc2nc(C)c1=NOCc1ccc(C#N)cc1 -1.14%
CCN(CC)c1ccc(/C=N/Nc2nn[nH]n2)cc1 -1.85%
COCCNC(=S)NN=C1CCCCCC1 -2.04%
NC(=S)N=Nc1c(O)n(Cc2ccc(F)cc2)c2ccccc12 -0.28%
Cn1c(SCC(=O)N/N=C/c2ccc([N+](=O)[O-])s2)nnc1-c1ccccc1 -4.21%
Cc1ccc(Nc2nc(CSc3nnc(-c4ccccc4C)n3C)cs2)cc1 -1.34%
O=Nc1onc(-c2ccc([N+](=O)[O-])cc2)c1NO -3.64%
CCOc1ccc(C2=CSC3=NCCN23)cc1 -1.7%
C/C(=N\NC(=S)NCc1ccccc1)c1cccs1 -2.8%
COC(=O)c1c(NC(=O)CS(=O)(=O)c2ccccc2)sc(C)c1C -1.35%
O=C(NC(=S)Nc1ccccc1Cl)C1CC1 -2.58%
COC(=O)c1ccc(NC(=O)c2ccccc2)o1 0.298%
Cc1nc(C)c(CC(=O)N/N=C/c2ccc(O)cc2)c(=O)[nH]1 -2.66%
O=C(c1cccs1)N1N=C(c2ccc(O)cc2)CC1c1ccccc1 (configuration not stated) -1.1%
O=C(c1ccco1)N1CCCN(Cc2nc(-c3ccc4c(c3)OCO4)no2)CC1 -0.603%
COc1ccc(N2CCN(C(=O)C3CCN(S(=O)(=O)c4ccc(F)cc4)CC3)CC2)cc1 0.327%
Fc1ccccc1NC(=S)Nn1cnnc1 -2.95%
C=C(C)C1Cc2c(C)nn(-c3ccccn3)c2C1 (configuration not stated) -2.48%
COc1ccc(NC(=O)C(=O)NCC(c2ccco2)N2CCc3ccccc32)cc1 (configuration not stated) -2.76%
CC(C)(C)c1ccc2c(c1)OC(C(=O)N/N=C\c1ccc[nH]1)CO2 (configuration not stated) -8.5%
CCNC(=S)N/N=C/c1ccco1 -3.62%
CC1=CC2=NC(=O)/C(=C\c3cccn3CCOc3cc(C)ccc3C)C(=N)N2O1 6.22%
NC(=S)N/N=C/c1ccc(-c2ccccc2)o1 -2.68%
NNc1nc2c(Cl)cccc2s1 -2.97%
CCOc1ccccc1OCC(=O)O 12.7%
CCCc1nc2ccccc2c(C(=O)OCC(=O)NCc2ccc3c(c2)OCO3)c1CC -0.454%
CCc1ccc(/C=N/n2c(C)cc(C)c(C#N)c2=O)cc1 -1.97%
N#Cc1cccc2c1-c1ccccc1/C2=N/NC(N)=S -3.02%
CC1CCC2C(=O)N(c3ccc(C(=O)Oc4cccc5cccnc45)cc3)C(=O)C2C1 (configuration not stated) -0.993%
CC1C/C(=N\NC(N)=S)c2cc(Cl)ccc2S1 (configuration not stated) -3.51%
C=CCC(CC(O)COCCC)C(=O)NNC(=S)Nc1ccccc1 (configuration not stated) -3.17%
CC1CC(C)(C)N(C(=O)CN2CCN(C)CC2)c2ccccc21 (configuration not stated) -2.37%
CC1(C)Cc2ccccc2-c2n[nH]c(=S)n21 -4.09%
O=C1NC(=S)/C(=C\c2ccc(-c3ccccc3Cl)o2)S1 -1.98%
CS(=O)(=O)Nc1ccccc1C(=O)NCCSCc1ccccc1 -0.858%

No new results follow: entries from further up.
activation, inactive:
COc1cc(/C=C2\CC(C(C)(C)C)C/C(=C\c3cc(OC)c(OC)c(OC)c3)C2=O)cc(OC)c1OC (configuration not stated) -2.89%
COc1cccc(NC(=S)NN=C2CCCCCC2)c1 -0.788%
C=C(C)c1cccc(C(C)(C)NC(=O)NC(c2ccccc2)c2ccc(OC)cc2)c1 (configuration not stated) 8.73%
COC(CN(C(=O)CCl)C(C(=O)NC1CCCC(C)C1C)c1ccc(C)cc1)OC (configuration not stated) -4.4%
CC(C)CNC(=O)CN(C)S(=O)(=O)c1ccc(F)cc1 -3.8%
Cc1nc(NC(=S)Nc2ccccc2)sc1C -1.95%
COc1cc(C(c2nnnn2C(C)(C)C)N2CCN(C)CC2)cc(OC)c1OC (configuration not stated) -0.645%
Clc1ccc(OCc2nc(-c3ccccn3)n[nH]2)cc1 -1.51%
C=C(C)Cn1c(SCC(=O)N/N=C/c2cccc(O)c2)nc2ccccc2c1=O -1.27%
O=c1c(C(c2ccccc2)c2c(O)nc3n(c2=O)CCS3)c(O)nc2n1CCS2 -2.35%
CCCCCOc1ccc(NC(=O)CSc2cccc3cccnc23)cc1 0.173%
Oc1ccc2c(ccc3[nH]cnc32)c1 -2.43%
O=[N+]([O-])c1ccc(Cl)c(C2Nc3cccc4cccc(c34)N2)c1 -2.34%
CCc1nnc(NC(=S)Nc2ccccc2)s1 -2.15%
COc1cc(/C=N/NC(=S)NC2CC3C=CC2C3)cc(OC)c1OC (configuration not stated) -3.31%
S=C(Nc1ccccc1Cl)N(Cc1ccccc1)Cc1ccccn1 -11%
Oc1c(CN2CCN(c3ccccc3)CC2)cc(Br)c2cccnc12 -0.0884%
CCN(CC)c1cc(C(F)(F)F)nc(-c2ccccn2)n1 -3.79%
CCOC(=O)N1CCN(Cc2c(F)cccc2F)CC1 -2.4%
CCOC(=O)n1c(=O)oc2cc(S(=O)(=O)N3CCCCC3)ccc21 -4.09%
Cn1c(=S)c2[nH]c(SCCN3CCCC3)nc2n(C)c1=O -2.7%

— PubChem BioAssay AID588463 (National Center for Advancing Translational Sciences (NCATS), 2011)
